Record: PubChem BioAssay AID743121 (NCATS, 2013)

Aim: 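Knock-downs that sensitise breast cancer cells to camptothecin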 (primary screen)
System: MDA-MB-231 cells, a human breast cancer line
Reagent: single siRNA against human genes, 20 nM siRNA (0.8 pmol per well)
Timing: 120 h (drug added 48 h after transfection, read 72 h later)
Conditions: camptothecin 20 nM (about EC30) for 72 h; vehicle 0.1% DMSO in parallel plates
Detection: 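CellTiter-Glo ATP signal, scaled to control siRNA as percent viability; sensitisation given as log2 of untreated divided by camptothecin-treated viability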
Reading the numbers: log2 vehicle/camptothecin viability: higher = stronger sensitisation to camptothecin; viability with camptothecin and viability without drug: higher = more viable cells
Rule for the call: 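Each gene scored by redundant siRNA activity (RSA) over its individual siRNA ratios; a gene is called active at p < 0.001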
In all, the deposit lists about 26,000 reagents; below is a part drawn at random. 167 of all reagents (0.63%) were called active. 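Calls are per gene from RSA p-values that are not deposited; an individual active-marked siRNA can sensitise only weakly.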 Reagents against one gene are numbered here.

| target | reagent | log2 vehicle/camptothecin viability | viability with camptothecin (% of control) | viability without drug (% of control) | outcome |
| --- | --- | --- | --- | --- | --- |
| AK2 (adenylate kinase 2) | 1 | -0.455 | 57.8 | 42.1 | inactive |
| AK2 (adenylate kinase 2) | 2 | -0.424 | 92.5 | 68.9 | inactive |
| AK2 (adenylate kinase 2) | 3 | -0.0966 | 113 | 106 | inactive |
| AK2 (adenylate kinase 2) | 4 | -0.117 | 93.7 | 86.4 | inactive |
| AK2 (adenylate kinase 2) | 5 | -0.317 | 69.1 | 55.4 | inactive |
| AK2 (adenylate kinase 2) | 6 | -0.352 | 79.5 | 62.3 | inactive |
| AK2 (adenylate kinase 2) | 7 | -0.464 | 112 | 81.1 | inactive |
| AK2 (adenylate kinase 2) | 8 | -0.309 | 91.9 | 74.2 | inactive |
| SGK3 (serum/glucocorticoid regulated kinase family member 3) | 1 | 0.294 | 20.3 | 24.9 | inactive |
| SGK3 (serum/glucocorticoid regulated kinase family member 3) | 2 | 0.0023 | 108 | 108 | inactive |
| SGK3 (serum/glucocorticoid regulated kinase family member 3) | 3 | 0.0157 | 83 | 83.9 | inactive |
| SGK3 (serum/glucocorticoid regulated kinase family member 3) | 4 | 0.0699 | 70.3 | 73.8 | inactive |
| NEK8 (NIMA related kinase 8) | 1 | -0.366 | 67.4 | 52.3 | inactive |
| NEK8 (NIMA related kinase 8) | 2 | -0.426 | 89.2 | 66.4 | inactive |
| NEK8 (NIMA related kinase 8) | 3 | -0.42 | 119 | 88.9 | inactive |
| NEK8 (NIMA related kinase 8) | 4 | -0.195 | 39.3 | 34.3 | inactive |
| SLC10A1 | 1 | -0.0172 | 74 | 73.1 | inactive |
| SLC10A1 | 2 | -0.166 | 81.5 | 72.7 | inactive |
| SLC10A1 | 3 | 0.273 | 102 | 123 | inactive |
| SLC10A1 | 4 | -0.142 | 34.8 | 31.5 | inactive |
| NFATC1 (nuclear factor of activated T cells 1) | 1 | -0.31 | 71.1 | 57.4 | inactive |
| NFATC1 (nuclear factor of activated T cells 1) | 2 | 0.0667 | 55.1 | 57.7 | inactive |
| NFATC1 (nuclear factor of activated T cells 1) | 3 | -0.076 | 116 | 110 | inactive |
| NFATC1 (nuclear factor of activated T cells 1) | 4 | 0.112 | 94.7 | 102 | inactive |
| ALDH16A1 (aldehyde dehydrogenase 16 family member A1) | 1 | -0.0846 | 85.1 | 80.3 | inactive |
| ALDH16A1 (aldehyde dehydrogenase 16 family member A1) | 2 | 1.16 | 35.7 | 79.6 | inactive |
| ALDH16A1 (aldehyde dehydrogenase 16 family member A1) | 3 | -0.314 | 60.1 | 48.3 | inactive |
| ALDH16A1 (aldehyde dehydrogenase 16 family member A1) | 4 | -0.0566 | 59 | 56.7 | inactive |
| FZD7 (frizzled class receptor 7) | 1 | -0.22 | 90.7 | 77.9 | inactive |
| FZD7 (frizzled class receptor 7) | 2 | 0.143 | 68 | 75 | inactive |
| FZD7 (frizzled class receptor 7) | 3 | -0.512 | 63.3 | 44.4 | inactive |
| FZD7 (frizzled class receptor 7) | 4 | -0.565 | 80.3 | 54.3 | inactive |

An excerpt from above, limited to “viability with camptothecin (% of control)”:
AK2 (adenylate kinase 2) #1: 57.8
AK2 (adenylate kinase 2) #2: 92.5
AK2 (adenylate kinase 2) #3: 113
AK2 (adenylate kinase 2) #4: 93.7
AK2 (adenylate kinase 2) #5: 69.1
AK2 (adenylate kinase 2) #6: 79.5
AK2 (adenylate kinase 2) #7: 112
AK2 (adenylate kinase 2) #8: 91.9

Next results:
| target | reagent | log2 vehicle/camptothecin viability | viability with camptothecin (% of control) | viability without drug (% of control) | outcome |
| --- | --- | --- | --- | --- | --- |
| CYP2F1 (cytochrome P450 family 2 subfamily F member 1) | 1 | -0.254 | 64.1 | 53.7 | inactive |
| CYP2F1 (cytochrome P450 family 2 subfamily F member 1) | 2 | -0.382 | 65.8 | 50.5 | inactive |
| CYP2F1 (cytochrome P450 family 2 subfamily F member 1) | 3 | -0.128 | 8.84 | 8.09 | inactive |
| CYP2F1 (cytochrome P450 family 2 subfamily F member 1) | 4 | -0.412 | 76.6 | 57.6 | inactive |
| GCH1 (GTP cyclohydrolase 1) | 1 | -0.324 | 97 | 77.5 | inactive |
| GCH1 (GTP cyclohydrolase 1) | 2 | -0.202 | 85.3 | 74.2 | inactive |
| GCH1 (GTP cyclohydrolase 1) | 3 | -0.269 | 53.2 | 44.1 | inactive |
| GCH1 (GTP cyclohydrolase 1) | 4 | -0.356 | 102 | 79.9 | inactive |
| PLOD1 (procollagen-lysine,2-oxoglutarate 5-dioxygenase 1) | 1 | -0.33 | 43.3 | 34.4 | inactive |
| PLOD1 (procollagen-lysine,2-oxoglutarate 5-dioxygenase 1) | 2 | 0.383 | 54.4 | 70.9 | inactive |
| PLOD1 (procollagen-lysine,2-oxoglutarate 5-dioxygenase 1) | 3 | -0.333 | 78.8 | 62.6 | inactive |
| PLOD1 (procollagen-lysine,2-oxoglutarate 5-dioxygenase 1) | 4 | -0.104 | 96.5 | 89.8 | inactive |
| FTL (ferritin light chain) | 1 | -0.23 | 61.1 | 52.1 | inactive |
| FTL (ferritin light chain) | 2 | 0.199 | 47.3 | 54.3 | inactive |
| FTL (ferritin light chain) | 3 | -0.189 | 99.7 | 87.5 | inactive |
| FTL (ferritin light chain) | 4 | -0.973 | 4.82 | 2.46 | inactive |
| NPAS1 (neuronal PAS domain protein 1) | 1 | 0.346 | 25.7 | 32.6 | inactive |
| NPAS1 (neuronal PAS domain protein 1) | 2 | -0.0436 | 82.5 | 80 | inactive |
| NPAS1 (neuronal PAS domain protein 1) | 3 | -0.24 | 84 | 71.2 | inactive |
| NPAS1 (neuronal PAS domain protein 1) | 4 | -0.254 | 64.7 | 54.2 | inactive |
| LIMK2 (LIM domain kinase 2) | 1 | -0.214 | 94.4 | 81.4 | inactive |
| LIMK2 (LIM domain kinase 2) | 2 | 0.0371 | 49.3 | 50.5 | inactive |
| LIMK2 (LIM domain kinase 2) | 3 | -0.175 | 84.6 | 74.9 | inactive |
| LIMK2 (LIM domain kinase 2) | 4 | -0.28 | 57.8 | 47.6 | inactive |
| DSG1 (desmoglein 1) | 1 | -0.221 | 88.1 | 75.6 | inactive |
| DSG1 (desmoglein 1) | 2 | 0.0949 | 90.9 | 97.1 | inactive |
| DSG1 (desmoglein 1) | 3 | -0.0742 | 41.1 | 39.1 | inactive |
| GPC4 (glypican 4) | 1 | 0.209 | 88.1 | 102 | inactive |
| GPC4 (glypican 4) | 2 | 0.119 | 83.6 | 90.7 | inactive |
| GPC4 (glypican 4) | 3 | -0.264 | 50.3 | 41.9 | inactive |
| GPC4 (glypican 4) | 4 | -0.184 | 113 | 99.7 | inactive |
| TIMP2 (TIMP metallopeptidase inhibitor 2) | 1 | 0.174 | 63 | 71 | inactive |
| TIMP2 (TIMP metallopeptidase inhibitor 2) | 2 | 0.0345 | 42.1 | 43.1 | inactive |
| TIMP2 (TIMP metallopeptidase inhibitor 2) | 3 | -0.122 | 43.2 | 39.6 | inactive |
| TIMP2 (TIMP metallopeptidase inhibitor 2) | 4 | -0.477 | 130 | 93.5 | inactive |
| LRRC39 (leucine rich repeat containing 39) | 1 | -0.115 | 66.4 | 61.3 | inactive |
| LRRC39 (leucine rich repeat containing 39) | 2 | 0.238 | 24.2 | 28.6 | inactive |
| LRRC39 (leucine rich repeat containing 39) | 3 | -0.193 | 74.2 | 64.9 | inactive |
| LRRC39 (leucine rich repeat containing 39) | 4 | 0.617 | 41.2 | 63.2 | inactive |
| TP73 (tumor protein p73) | 1 | -0.0895 | 91.6 | 86.1 | inactive |
| TP73 (tumor protein p73) | 2 | 0.305 | 59.2 | 73.1 | inactive |
| TP73 (tumor protein p73) | 3 | -0.0537 | 87.3 | 84.1 | inactive |
| TP73 (tumor protein p73) | 4 | -0.172 | 74.9 | 66.4 | inactive |
| CD276 (CD276 molecule) | 1 | 0.144 | 80.1 | 88.5 | inactive |
| CD276 (CD276 molecule) | 2 | 0.117 | 33.6 | 36.4 | inactive |
| CD276 (CD276 molecule) | 3 | 0.0559 | 54.9 | 57.1 | inactive |
| SST (somatostatin) | 1 | 0.0463 | 23.2 | 24 | inactive |
| SST (somatostatin) | 2 | -0.209 | 105 | 90.9 | inactive |
| SST (somatostatin) | 3 | -0.204 | 101 | 88.1 | inactive |
| SST (somatostatin) | 4 | -0.0853 | 71.4 | 67.3 | inactive |
| KCNAB2 | 1 | 1.38 | 16.7 | 43.4 | inactive |
| KCNAB2 | 2 | -0.41 | 122 | 92.1 | inactive |
| KCNAB2 | 3 | -0.481 | 81 | 58.1 | inactive |
| BCL2L1 (BCL2 like 1) | 1 | 2.12 | 2.16 | 9.37 | active |
| BCL2L1 (BCL2 like 1) | 2 | 0.369 | 12.1 | 15.6 | active |
| BCL2L1 (BCL2 like 1) | 3 | 1.62 | 23.2 | 71.4 | active |
